According to PMC9532951, “Identification and characterization of a novel SNAT2 (SLC38A2) inhibitor reveals synergy with glucose transport inhibition in cancer cells” (Frontiers in Pharmacology, 2022):
Values joined by “and” are separate entries in the source; they are usually repeats but may differ in a detail not shown here. Equal entries are not always repeated. The source gives many values for each of these; only a part stands here.

Tests used:
SNAT2 = target: T1, SNAT2 (Homo sapiens, UniProt Q96QD8); experiment: FMP assay with betaine in amino acid depleted SKOV3 cells; format: cell-based; set-up: SKOV3 cells were pre-incubated in starvation medium for 15 h to induce SNAT2 expression; endogenous in cells; host or cells: SKOV3 ovarian cancer cells, amino acid depleted for 15 h
T1 sequence (Q96QD8 1-506): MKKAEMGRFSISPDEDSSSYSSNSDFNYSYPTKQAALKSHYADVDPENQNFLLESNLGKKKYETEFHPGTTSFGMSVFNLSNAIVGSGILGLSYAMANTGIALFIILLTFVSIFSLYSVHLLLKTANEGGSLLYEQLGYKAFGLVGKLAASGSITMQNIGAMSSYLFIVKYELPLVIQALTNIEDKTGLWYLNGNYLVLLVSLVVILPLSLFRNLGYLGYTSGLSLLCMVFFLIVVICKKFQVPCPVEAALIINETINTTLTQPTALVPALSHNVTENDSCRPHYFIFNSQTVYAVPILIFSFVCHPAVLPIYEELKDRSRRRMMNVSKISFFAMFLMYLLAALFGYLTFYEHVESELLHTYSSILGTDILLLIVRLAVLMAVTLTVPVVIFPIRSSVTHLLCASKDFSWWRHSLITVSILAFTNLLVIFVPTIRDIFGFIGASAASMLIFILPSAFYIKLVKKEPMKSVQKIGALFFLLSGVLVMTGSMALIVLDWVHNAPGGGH
Protocol: The FLIPR Membrane Potential Blue Explorer Kit (Molecular Devices) was used to characterise inhibitors and to optimise a high-throughput compound screen. Cells were seeded at approximately 60,000 cells/well on a 96-well plate and allowed to attach and grow overnight in a cell incubator. The next day, the cells were washed once with mHBSS and incubated in a starvation medium (composed of mHBSS with 1% dialysed heat-inactivated FBS, 23 mM NaHCO3, 10 U/ml penicillin and 10 μg/ml streptomycin) for 24 h. Cells were then washed once with mHBSS and incubated with 50 µl of the mHBSS-resuspended FMP assay dye and 50 µl of mHBSS (with or without inhibitors) and incubated at room temperature for 30 min. The plate was then placed in an EnSpire Multimode plate reader (PerkinElmer) and four sequential measurements of fluorescence were recorded as a baseline reference. […] The excitation wavelength was set to 530 nm and the emission was detected at 565 nm. The Δ fluorescent signal reported in the figures was taken 30 s after substrate addition. After the assay was complete, the liquid content of the plate was carefully removed, and the cell monolayer inspected to ensure it remained intact throughout the course of the assay.

SNAT1 and SNAT2 [1] = target: T2, SNAT1 and SNAT2 (Homo sapiens, UniProt Q9H2H9); experiment: FMP assay in HCC1806 clones C10 (ASCT2ko) and D126 (ASCT2ko, SNAT2ko); format: cell-based; conditions: D126 cells
T2 construct: endogenous in cells; host or cells: HCC1806 clone C10 (ASCT2ko) and clone D126 (ASCT2ko, SNAT2ko), amino acid depleted for 24 h
T2 sequence (Q9H2H9 1-487): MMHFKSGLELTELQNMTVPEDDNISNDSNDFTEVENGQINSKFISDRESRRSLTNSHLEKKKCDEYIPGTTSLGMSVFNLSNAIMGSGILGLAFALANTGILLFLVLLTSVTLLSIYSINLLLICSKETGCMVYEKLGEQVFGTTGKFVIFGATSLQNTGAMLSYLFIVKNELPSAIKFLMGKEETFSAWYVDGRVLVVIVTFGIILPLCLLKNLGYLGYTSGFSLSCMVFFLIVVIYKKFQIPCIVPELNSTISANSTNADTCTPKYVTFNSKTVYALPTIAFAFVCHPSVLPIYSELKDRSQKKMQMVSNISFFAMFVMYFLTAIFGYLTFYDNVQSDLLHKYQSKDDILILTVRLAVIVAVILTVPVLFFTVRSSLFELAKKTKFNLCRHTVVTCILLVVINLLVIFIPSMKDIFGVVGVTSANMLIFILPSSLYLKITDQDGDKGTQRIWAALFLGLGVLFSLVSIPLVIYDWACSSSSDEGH
Protocol: (§1) To delete the SNAT2 (SLC38A2) gene in modified HCC1806 cells (clone C10 nullizygous for ASCT2 ([Broer et al., 2019])), the GeneArt CRISPR Nuclease Vector with OFP Reporter Kit (Invitrogen; A21174) was employed and complementary 19–20 bp long single-stranded oligonucleotides with overhangs were designed to produce a guide RNA (gRNA) for the Cas9 nuclease that would target exon 7 of the SNAT2 gene. Colonies were analysed by sequencing using the U6 primer included in the GeneArt CRISPR Nuclease Vector with OFP Reporter kit. Plasmids that contained the correct CRISPR nuclease construct were then used to transfect HCC1806 cells with Lipofectamine 2000 (Invitrogen). Prior to transfection, medium was replaced with 2 ml of fresh DMEM/F-12 (supplemented with 10% heat-inactivated FBS and 2 mM glutamine). Plasmid DNA (4 µg) and 10 µL of Lipofectamine 2000 were incubated separately for 5 min at room temperature in 500 µl of Opti-MEM (Invitrogen) before being combined and incubated for a further 30 min at room temperature. The DNA-Lipofectamine complex was then added to the cells in a dropwise manner and allowed to be absorbed over 6 h at 37°C, after which the medium was renewed with fresh DMEM/F-12. Cells were checked for red fluorescence using an EVOS FL cell imaging system (Thermo Fisher Scientific) 48–72 h post transfection. Subsequently, cells were detached using 0.25% Trypsin EDTA. After harvesting and washing thrice with PBS (pH 7.4), cells were resuspended in PBS (pH 7.4) supplemented with 5 mM glucose and 1% dialysed and heat inactivated FBS and passed through a 100 μm cell strainer. The cell filtrate was then pelleted once more and resuspended in the same buffer. Cells were sorted using an ARIA II FACS machine and individually dispensed into the wells of a 96-well plate. Nullizygous clones were identified using a series of assays including the FLIPR membrane potential assay, western blotting and sequencing.
(§2) The FLIPR Membrane Potential Blue Explorer Kit (Molecular Devices) was used to characterise inhibitors and to optimise a high-throughput compound screen. Cells were seeded at approximately 60,000 cells/well on a 96-well plate and allowed to attach and grow overnight in a cell incubator. […] The plate was then placed in an EnSpire Multimode plate reader (PerkinElmer) and four sequential measurements of fluorescence were recorded as a baseline reference. Immediately after the baseline measurements were taken, 25 µl of 5 mM glutamine dissolved in mHBSS was injected into each well and the plate was shaken orbitally for 5 s before a series of consecutive fluorescence measurements were taken. The excitation wavelength was set to 530 nm and the emission was detected at 565 nm. […]

SNAT1 and SNAT2 [2] = experiment: as above; format: cell-based, human; conditions: C10 cells
Protocol: as §1, §2

## C[N+](C)(C)CC(=O)O [Betaine, betaine]
SNAT2; concentration 0.03, time 0
  FMP fluorescence trace (Figure 4E): 36248 and 39601 and 41404
SNAT2; concentration 0.03, time 15
  FMP fluorescence trace (Figure 4E): 36188 and 39472 and 40740
SNAT2; concentration 0.03, time 30
  FMP fluorescence trace (Figure 4E): 36456 and 39343 and 40891
SNAT2; concentration 0.03, time 105
  FMP fluorescence trace (Figure 4E): 39631 and 40948
SNAT2; concentration 0.03, time 120
  FMP fluorescence trace (Figure 4E): 36395 and 40014 and 40781
SNAT2; concentration 0.03, time 135
  FMP fluorescence trace (Figure 4E): 36713 and 39699 and 41060
SNAT2; concentration 0.03, time -15
  FMP fluorescence trace (Figure 4E): 36682 and 39641 and 41234
SNAT2; concentration 0.03, time -30
  FMP fluorescence trace (Figure 4E): 36591 and 39956 and 41198
SNAT2; concentration 0.1, time 0
  FMP fluorescence trace (Figure 4E): 39340 and 42821 and 44257
SNAT2; concentration 0.1, time 15
  FMP fluorescence trace (Figure 4E): 39994 and 43240 and 44695
SNAT2; concentration 0.1, time 30
  FMP fluorescence trace (Figure 4E): 40300 and 43268 and 44511
SNAT2; concentration 0.1, time 105
  FMP fluorescence trace (Figure 4E): 40063 and 43790 and 44920
SNAT2; concentration 0.1, time 120
  FMP fluorescence trace (Figure 4E): 40412 and 43731 and 45066
SNAT2; concentration 0.1, time 135
  FMP fluorescence trace (Figure 4E): 40214 and 43963 and 45148
SNAT2; concentration 0.1, time -15
  FMP fluorescence trace (Figure 4E): 39614 and 43044 and 44530
SNAT2; concentration 0.1, time -30
  FMP fluorescence trace (Figure 4E): 39905 and 43080 and 44482
SNAT2; concentration 0.3, time 0
  FMP fluorescence trace (Figure 4E): 35236 and 50065 and 44763
SNAT2; concentration 0.3, time 15
  FMP fluorescence trace (Figure 4E): 38807 and 54462 and 48245
SNAT2; concentration 0.3, time 30
  FMP fluorescence trace (Figure 4E): 39021 and 54500 and 48475
SNAT2; concentration 0.3, time 120
  FMP fluorescence trace (Figure 4E): 39771 and 55626 and 49234
SNAT2; concentration 0.3, time 135
  FMP fluorescence trace (Figure 4E): 39866 and 55559 and 49279
SNAT2; concentration 0.3, time -15
  FMP fluorescence trace (Figure 4E): 35725 and 50036 and 44815
SNAT2; concentration 0.3, time -30
  FMP fluorescence trace (Figure 4E): 35663 and 50206 and 44692
SNAT2; concentration 1, time 0
  FMP fluorescence trace (Figure 4E): 38616 and 51411 and 46418
SNAT2; concentration 1, time 15
  FMP fluorescence trace (Figure 4E): 51329 and 65920 and 59516
SNAT2; concentration 1, time 30
  FMP fluorescence trace (Figure 4E): 52319 and 66757 and 60235
SNAT2; concentration 1, time 120
  FMP fluorescence trace (Figure 4E): 53418 and 69184 and 62213
SNAT2; concentration 1, time 135
  FMP fluorescence trace (Figure 4E): 53663 and 69622 and 61661
SNAT2; concentration 1, time -15
  FMP fluorescence trace (Figure 4E): 38966 and 51107 and 46816
SNAT2; concentration 1, time -30
  FMP fluorescence trace (Figure 4E): 39015 and 51488 and 46730
SNAT2; concentration 3, time 0
  FMP fluorescence trace (Figure 4E): 39098 and 47301 and 43810
SNAT2; concentration 3, time 15
  FMP fluorescence trace (Figure 4E): 65447 and 77239 and 72609
SNAT2; concentration 3, time 30
  FMP fluorescence trace (Figure 4E): 67878 and 79895 and 74460
SNAT2; concentration 3, time 120
  FMP fluorescence trace (Figure 4E): 71575 and 85498 and 78527
SNAT2; concentration 3, time 135
  FMP fluorescence trace (Figure 4E): 71691 and 84918 and 79074
SNAT2; concentration 3, time -15
  FMP fluorescence trace (Figure 4E): 38941 and 47276 and 43868
SNAT2; concentration 3, time -30
  FMP fluorescence trace (Figure 4E): 38992 and 47580 and 43779
SNAT2; concentration 10, time 0
  FMP fluorescence trace (Figure 4E): 38026 and 47522 and 43301
SNAT2; concentration 10, time 15
  FMP fluorescence trace (Figure 4E): 77709 and 92080 and 85399
SNAT2; concentration 10, time 30
  FMP fluorescence trace (Figure 4E): 81193 and 96439 and 89928
SNAT2; concentration 10, time 120
  FMP fluorescence trace (Figure 4E): 89522 and 106429 and 98327
SNAT2; concentration 10, time 135
  FMP fluorescence trace (Figure 4E): 89958 and 106947 and 98853
SNAT2; concentration 10, time -15
  FMP fluorescence trace (Figure 4E): 38236 and 47973 and 43260
SNAT2; concentration 10, time -30
  FMP fluorescence trace (Figure 4E): 38420 and 48280 and 43303
SNAT2; concentration 30, time 0
  FMP fluorescence trace (Figure 4E): 34380 and 43442 and 39339
SNAT2; concentration 30, time 15
  FMP fluorescence trace (Figure 4E): 78102 and 91417 and 87667
SNAT2; concentration 30, time 30
  FMP fluorescence trace (Figure 4E): 82488 and 96970 and 91979
SNAT2; concentration 30, time 120
  FMP fluorescence trace (Figure 4E): 94607 and 112721 and 104458
SNAT2; concentration 30, time 135
  FMP fluorescence trace (Figure 4E): 94767 and 112903 and 104920
SNAT2; concentration 30, time -15
  FMP fluorescence trace (Figure 4E): 34399 and 43394 and 39108
SNAT2; concentration 30, time -30
  FMP fluorescence trace (Figure 4E): 34516 and 43482 and 39169

## N[C@@H](CCC(=O)NO)C(=O)O [GHX, L-glutamic acid γ-monohydroxamate]
SNAT1 and SNAT2 [1]; time 12, replicates 1-10
  FMP fluorescence: 15497 and 15187 and 15491 and 15990 and 16201 and 16210 and 15458 and 14591 and 15061
SNAT1 and SNAT2 [1]; time 20, replicates 1-10
  FMP fluorescence: 20228 and 15609 and 15195 and 15756 and 16281 and 16254 and 16439 and 15610 and 14748 and 15258
SNAT1 and SNAT2 [2]; time 12, replicates 1-10
  FMP fluorescence: 22680 and 24692 and 23914 and 30455 and 30240 and 24259 and 22517 and 22424 and 30730 and 20724
SNAT1 and SNAT2 [2]; time 20, replicates 1-10
  FMP fluorescence: 22571 and 24791 and 24317 and 30484 and 30582 and 24624 and 22645 and 23055 and 30684 and 21238
